Data reported in article PMC7819943, “Rice protein-binding microarrays: a tool to detect cis-acting elements near promoter regions in rice”.
The other results are listed elsewhere or left out.

Sequences of proteins named here, by UniProt entry; tags and fusion partners are left off.
UniProt Q0JBA9, entry or part of it: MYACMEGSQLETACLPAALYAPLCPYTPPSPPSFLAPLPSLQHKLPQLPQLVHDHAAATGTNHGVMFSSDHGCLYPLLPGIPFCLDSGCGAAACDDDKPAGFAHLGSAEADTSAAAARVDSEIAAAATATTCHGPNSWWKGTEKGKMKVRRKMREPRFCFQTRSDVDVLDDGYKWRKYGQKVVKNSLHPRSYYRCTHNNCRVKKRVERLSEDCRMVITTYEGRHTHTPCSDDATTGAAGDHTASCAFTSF

These sequences were tested against OsWRKY34 (Oryza sativa, UniProt Q0JBA9 1-250) (assay: protein-binding microarray (RPBM); PBS, 2% BSA, 51.3 ng/ul salmon testes DNA, 50 uM zinc acetate, 200 nM TF, 25 C, 1 h; high values mean tight binding). Settings: protein: recombinant; tags: N-terminal polyhistidine and DsRed monomer fusion (pET32a); label: CyDye5-dUTP incorporated in the synthesized complementary strand; 3' TTTTT single-stranded linker to array surface; dsDNA, one strand shown.
Summary of the method: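 Transcription factors were made in E. coli BL21-CodonPlus as N-terminal fusions to a polyhistidine tag and DsRed, then purified on Ni–NTA. After primer extension with Cy5-dUTP and blocking with 2% BSA, a custom Agilent array was exposed for 1 h at 25 °C to 200 nM protein in PBS, 2% BSA, salmon testes DNA and 50 µM zinc acetate. Washed arrays were scanned on an Axon 4000B, and the binding signal is per-feature fluorescence intensity in arbitrary units.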

Sequence	binding signal
GGGAGGGGAGCTCTCGCGTCGCCTCCGTAAGGTGGGGTGTCGGAGTCACCTAGTGCAG	8700 fluorescence intensity (a.u.)
GCCTTTTTTTTTCCCACCCATTCGCTCACGCATCTCATTTCGGAGTCACCTAGTGCAG	8750 fluorescence intensity (a.u.)
CACACTTGTTCCATTGTTGGTCTTCTCACCAATACATTTGCGGAGTCACCTAGTGCAG	8180 fluorescence intensity (a.u.)
TCACCACTGCTGCTCTCGCTGCCGTCCTTGTTCTTCGCGCCGGAGTCACCTAGTGCAG	8110 fluorescence intensity (a.u.)
CAGCACACTCACCCCTATGAACGCACACACGCACACCCTACGGAGTCACCTAGTGCAG	9660 fluorescence intensity (a.u.)
AAGCCACCAACCAGCATATATGCCCAACGATTTCGCTATACGGAGTCACCTAGTGCAG	9750 fluorescence intensity (a.u.)
GACCAATCCGCCGCCGCCACCTCGCCGCCTCCAGCCAATCCGGAGTCACCTAGTGCAG	13100 fluorescence intensity (a.u.)
ACATTATCCTTATTGATGGTATTTGCCTCTCTTTTTTTATCGGAGTCACCTAGTGCAG	9840 fluorescence intensity (a.u.)
CCGCGTACCGCTTCGTTTCTTTTTTTCGTTGACCGTGTGACGGAGTCACCTAGTGCAG	13900 fluorescence intensity (a.u.)
ATGTTTCTTACATTTTGTAACGTCATCCATGTTGCTGTGACGGAGTCACCTAGTGCAG	9480 fluorescence intensity (a.u.)
TGTGGTTAAGGGACTTTAAAAATTCTCGTGGTTAAGTTGACGGAGTCACCTAGTGCAG	8020 fluorescence intensity (a.u.)
GGATCCGGGCATCTGGCTGCCCCGCCGCCACTCCGCCTAGCGGAGTCACCTAGTGCAG	8170 fluorescence intensity (a.u.)
TGTCTTCTTCTTTGCCTCTCCCATTGCCAGTTTGCCACTCCGGAGTCACCTAGTGCAG	8210 fluorescence intensity (a.u.)
ATCGTTGTTAAGTTTTCGGTTGCATCCATCTGTTAAGTGCCGGAGTCACCTAGTGCAG	9150 fluorescence intensity (a.u.)
AATTCTATTACCTATAGGAAAGGTATGACCATGCTGTGTTCGGAGTCACCTAGTGCAG	8270 fluorescence intensity (a.u.)
CTTCACTTGATCCATCTGAGTTGCTGCTTCATACGAGACCCGGAGTCACCTAGTGCAG	9020 fluorescence intensity (a.u.)
GAAGATTTTGTTCCAGTTAATAACCCCAGCCAAACCAAACCGGAGTCACCTAGTGCAG	8520 fluorescence intensity (a.u.)
CCAACTTCTCCTTTTCAACCACCTACCTGACTTCACCGTTCGGAGTCACCTAGTGCAG	9420 fluorescence intensity (a.u.)
GTGTCTGCCTCTCTCTCTCGCGCGCGCAGCCTACCGCCACCGGAGTCACCTAGTGCAG	10000 fluorescence intensity (a.u.)
GAATGATTCTTTCGCTGTTTATTTTCCCTGATCATTAATTCGGAGTCACCTAGTGCAG	9060 fluorescence intensity (a.u.)
CATGTAATTTTTTATTTGTTTTTGGACCACCTACCCTGTCCGGAGTCACCTAGTGCAG	8030 fluorescence intensity (a.u.)

Sequence	binding signal
CTCTGCTTTGTCATTTCATACCTGATTTCAGTGTGGGAACCGGAGTCACCTAGTGCAG	8380 fluorescence intensity (a.u.)
ATTTCCCAGCTAGTATATGCACGGTAATTTGGCACGTGCACGGAGTCACCTAGTGCAG	9610 fluorescence intensity (a.u.)
CAGTCACAGCCACTGGCGATTGTTTTCTCGCCGAAGTCATCGGAGTCACCTAGTGCAG	8810 fluorescence intensity (a.u.)
GTGGTGGTGGTGAAAGGGTTAAGATTGCTCGTAGGATCCTCGGAGTCACCTAGTGCAG	8370 fluorescence intensity (a.u.)
GAGATCCAGAGAACTTTTTTTCTCCCTCTTGGATTCATTCCGGAGTCACCTAGTGCAG	8270 fluorescence intensity (a.u.)
ATGTCAGCCTGTCACCGAATTCCACCGTTTATCCGAGGGACGGAGTCACCTAGTGCAG	8500 fluorescence intensity (a.u.)
ATCGACTGATTCATCCGTTCTCTTTGTACTCTGTGGTTTTCGGAGTCACCTAGTGCAG	11600 fluorescence intensity (a.u.)
CGGCTCGCAAGCCGTCGTTGCCACGGTCGCGCATGTCGCGCGGAGTCACCTAGTGCAG	9120 fluorescence intensity (a.u.)
AGAGTTTTTTCAGTTTCACTCTATTTCTTCTTTACTACTACGGAGTCACCTAGTGCAG	10200 fluorescence intensity (a.u.)
ATTCTGTCTTGGTTTTTATAATGCGCATCTGATTCATTAACGGAGTCACCTAGTGCAG	11500 fluorescence intensity (a.u.)
GTTACTGTCTATAGATCACCATGTTACTGTCCGGTTTACTCGGAGTCACCTAGTGCAG	8420 fluorescence intensity (a.u.)
ATCCTCGCCGCTTCTGCCGCCGCCGCCGGCTCCCCTCCTCCGGAGTCACCTAGTGCAG	8730 fluorescence intensity (a.u.)
CAGGATTGCTTGGAGATTCGTGCGGGGACGCGCGGGGTGACGGAGTCACCTAGTGCAG	9720 fluorescence intensity (a.u.)
GTACATGGGGTTCTCTGATATTTACTCTTTATTTTTCAATCGGAGTCACCTAGTGCAG	10400 fluorescence intensity (a.u.)
TTTGTCCAGGTATCCATTTTGTCTCTCTTGTCCTCCGTTGCGGAGTCACCTAGTGCAG	9250 fluorescence intensity (a.u.)
GCCTCTCACCACCTGCGAAACCACGGCTGACGCATCGATGCGGAGTCACCTAGTGCAG	8640 fluorescence intensity (a.u.)
TGTATTCCTTCTTGTGCTCTGTTTTAATTTTTCTAATTTTCGGAGTCACCTAGTGCAG	9180 fluorescence intensity (a.u.)
CGCCTCGCCTCTTCCCAGTTCGCACTATCGCTTGCTTTCCCGGAGTCACCTAGTGCAG	8090 fluorescence intensity (a.u.)
ACCACACCCATCCATCCATCCATCGACGCACGCGTCGTCGCGGAGTCACCTAGTGCAG	10000 fluorescence intensity (a.u.)
GAAATCGGATCCCCTTGACGCAATCCTCTGGTTGGCATGACGGAGTCACCTAGTGCAG	8500 fluorescence intensity (a.u.)
CCCCTGACATCAATCGTCGCACCATCCATTCGATCGGTTTCGGAGTCACCTAGTGCAG	9930 fluorescence intensity (a.u.)

Random excerpt: two entries already listed.
Sequence	binding signal
ATCGACTGATTCATCCGTTCTCTTTGTACTCTGTGGTTTTCGGAGTCACCTAGTGCAG	11600 fluorescence intensity (a.u.)
GTTACTGTCTATAGATCACCATGTTACTGTCCGGTTTACTCGGAGTCACCTAGTGCAG	8420 fluorescence intensity (a.u.)
